According to article PMC10906927, “Structure of the PCNA unloader Elg1-RFC” (Science Advances, 2024):
Results are given in words; binding and its absence hold for the method and conditions named. Some binding calls cover weakened binding; strength is not graded here.

Assays:
Assay in all cases: cryo-EM structure; contacts between subunits inside the Elg1-RFC pentamer, which was co-expressed in E. coli and purified as one complex; seen in Elg1-RFC alone and with PCNA; ATPgammaS in Elg1, Rfc2, Rfc3, Rfc4, ADP in Rfc5; both purified
[1] = target: T1, Rfc3, subunit of Elg1-RFC (S. cerevisiae, UniProt P38629 1-340)
T1 construct: Rfc3, S. cerevisiae replication factor C subunit 3; Stood in the assay as a subunit of the Elg1-RFC pentamer; source: E. coli BLR(DE3), co-expressed with Elg1 and Rfc2, 4, 5, purified as Elg1-RFC (anti-FLAG resin, MonoS)
T1 sequence: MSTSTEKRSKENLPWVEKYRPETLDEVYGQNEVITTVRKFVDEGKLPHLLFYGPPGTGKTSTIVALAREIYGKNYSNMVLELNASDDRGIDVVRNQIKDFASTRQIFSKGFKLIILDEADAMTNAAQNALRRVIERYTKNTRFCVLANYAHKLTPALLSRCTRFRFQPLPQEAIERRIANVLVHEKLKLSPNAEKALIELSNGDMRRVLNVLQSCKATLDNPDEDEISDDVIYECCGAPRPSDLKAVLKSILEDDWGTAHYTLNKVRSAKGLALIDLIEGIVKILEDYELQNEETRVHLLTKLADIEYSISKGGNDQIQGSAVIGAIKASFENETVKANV

[2] = target: T2, Rfc4, subunit of Elg1-RFC (S. cerevisiae, UniProt P40339 1-323)
T2 construct: Rfc4, S. cerevisiae replication factor C subunit 4; Stood in the assay as a subunit of the Elg1-RFC pentamer; source: E. coli BLR(DE3), co-expressed with Elg1 and Rfc2, 3, 5, purified as Elg1-RFC (anti-FLAG resin, MonoS)
T2 sequence: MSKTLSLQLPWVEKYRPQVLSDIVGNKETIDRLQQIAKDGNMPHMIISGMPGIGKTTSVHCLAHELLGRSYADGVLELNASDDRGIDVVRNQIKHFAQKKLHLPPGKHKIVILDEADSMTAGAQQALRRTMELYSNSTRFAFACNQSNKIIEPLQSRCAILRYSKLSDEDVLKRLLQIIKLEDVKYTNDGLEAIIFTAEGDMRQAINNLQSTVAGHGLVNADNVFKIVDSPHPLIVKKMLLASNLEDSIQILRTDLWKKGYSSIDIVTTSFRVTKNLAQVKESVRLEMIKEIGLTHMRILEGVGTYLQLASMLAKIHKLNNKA

[3] = target: T3, Rfc5, subunit of Elg1-RFC (S. cerevisiae) (UniProt P38251)
T3 sequence: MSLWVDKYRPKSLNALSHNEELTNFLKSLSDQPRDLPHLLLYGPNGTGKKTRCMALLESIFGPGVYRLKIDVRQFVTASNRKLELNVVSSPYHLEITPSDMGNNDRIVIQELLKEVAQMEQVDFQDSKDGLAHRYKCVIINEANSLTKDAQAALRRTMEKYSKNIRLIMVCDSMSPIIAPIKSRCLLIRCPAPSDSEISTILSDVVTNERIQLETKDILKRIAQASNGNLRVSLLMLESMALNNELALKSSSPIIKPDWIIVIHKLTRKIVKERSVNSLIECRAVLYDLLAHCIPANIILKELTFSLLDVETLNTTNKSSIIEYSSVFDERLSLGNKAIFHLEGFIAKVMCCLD

Measured: binding

B1: Elg1 (enhanced levels of genome instability 1), subunit of Elg1-RFC (protein, UniProt Q12050 1-791)
chain: MKRHVSLSDILTGNKRKVRRQDALQITIDDENDTESGTFDARTAKHDDSSVIFLNHSVVKPIEAVSTNHKSAKEFLMTKRTKEKCDDDDDDLIVISDKSPKSETNCSKIALSQEHEDDISIISTSRIKSSLLNERASKIKNFLKHETTDTFKRLNSISKLNEIEPPLPLHQSIFPVGDKELSDRSVDIPLPFRTIPPLNHNFLPSDYESLKDKNSASCIPVRYQAPVLLGTNIKRNTTLTWPQLFKPVTLKQVLIEPKLKLRIKNWIETSFHTLEKPTLRNRLLNRINPNKQQGSGDELANFIVPDLEEDENLRPDFYRNGEANSSLSEFVPLMILHGNSIGKKTLIQTIMREIAGDDNSYQIYEVNSNMNRSKKDLLDILLDFTTTHYVKDSSKRKSDYGLVLFNDVDVLFKEHDRGYWAMISKLCEFSRRPLVLTCKDLSLVPSELIALASEQNSLFHTKKISTSTVYAFLTKYLKSLEIEVCDDWLRDVVKQNNADIRKCLMHLQFWCVDTEADLISSKNRLPVLTSTLGSSVKDISQLTDLLSINDVIGQATLNRSMVRQEIDSTTMTPEKVNTFQDQNLDDEMKLKFDYVIDYKLHLNDPNRQPLLPFELNIYQHIQEQLEARYSYVREANHRLDNEYLVNRFKKMTESTLNFLASRIPKYDHLQSARRTRNSKKISDILNQFKGIYNDETLNENAEIDLLSATTQQIKAEINPFVFEIAKSDANVKNENKQIFELHSENVSERRYKDLVYQLSQEGVLKNVWFNADPSIVVRKWEHLHSGFSKNK
binds: [1] | [2] | [3]
